Read-outs that look alike come from different tables or passages of the source. Some entries share one result that the patent states for a list of compounds. At least one compound was matched to its structure with a doubt left.
Assays:
[1] = tested on: potato leafhopper (Empoasca fabae); type: in vivo; conditions: Soleil bean plant, 6 days
Method: For evaluating control of potato leafhopper (Empoasca fabae) through contact and/or systemic means, the test unit consisted of a small open container with a 5-6-day-old Soleil bean plant (primary leaves emerged) inside. White sand was added to the top of the soil and one of the primary leaves was excised prior to application.
Test compounds were formulated and sprayed at 250 and 50 ppm, and the tests were replicated three times as described for Test A. After spraying, the test units were allowed to dry for 1 h before they were post-infested with 5 potato leafhoppers (18-21-day-old adults). A black, screened cap was placed on the top of the cylinder. The test units were held for 6 days in a growth chamber at 24° C. and 70% relative humidity. Each test unit was then visually assessed for insect mortality.

[2] = tested on: diamondback moth (Plutella xylostella); assay: Test A: control of diamondback moth, foliar spray on pre-infested radish plant; type: in vivo; conditions: sprayed at 250 ppm, 6 days at 25° C., very good to excellent control

## CCC[n+]1c([O-])c(-c2cc(OC(F)(F)F)ccc2F)c(=O)n2ccccc21 [Compound 341]
[1]; sprayed at 50 ppm
  mortality: ≥ 80%
[1]; sprayed at 250 ppm
  mortality: ≥ 80%
[2]
  control efficacy: feeding damage (40% or less feeding damage and/or 100% mortality): ≤ 40%

## O=c1c(-c2ccc3c(c2)OCO3)c([O-])[n+](Cc2cnc(Cl)s2)c2ccccn12 [Compound 494]
[1]; sprayed at 50 ppm
  mortality: ≥ 80%
[2]
  control efficacy: feeding damage (40% or less feeding damage and/or 100% mortality): ≤ 40%

## O=c1c(-c2ccc(Br)cc2F)c([O-])[n+](Cc2ccc(Cl)nc2)c2ccccn12 [Compound 85]
[1]; sprayed at 50 ppm
  mortality: ≥ 80%
[2]
  control efficacy: feeding damage (40% or less feeding damage and/or 100% mortality): ≤ 40%

## O=c1c(-c2ccccc2F)c([O-])[n+](Cc2cnc(Cl)s2)c2c(C(F)(F)F)cccn12 [Compound 755]
[1]; sprayed at 50 ppm
  mortality: ≥ 80%
[2]
  control efficacy: feeding damage (40% or less feeding damage and/or 100% mortality): ≤ 40%

## Cc1ncc(C[n+]2c([O-])c(-c3ccccc3)c(=O)n3ccccc32)s1 [Compound 218]
[1]; sprayed at 50 ppm
  mortality: ≥ 80%
[2]
  control efficacy: feeding damage (40% or less feeding damage and/or 100% mortality): ≤ 40%

## O=c1c(-c2cc(OC(F)(F)F)ccc2Cl)c([O-])[n+](Cc2ccc(Cl)nc2)c2ccccn12 [Compound 67]
[1]; sprayed at 50 ppm
  mortality: ≥ 80%
[1]; sprayed at 250 ppm
  mortality: ≥ 80%
[2]
  control efficacy: feeding damage (40% or less feeding damage and/or 100% mortality): ≤ 40%

## COCC[n+]1c([O-])c(-c2ccccc2)c(=O)n2ccccc21 [Compound 291]
[1]; sprayed at 250 ppm
  mortality: ≥ 80%
[2]
  control efficacy: feeding damage (40% or less feeding damage and/or 100% mortality): ≤ 40%

## CCC[n+]1c([O-])c(-c2cc(Br)ccc2F)c(=O)n2ccccc21 [Compound 314]
[1]; sprayed at 250 ppm
  mortality: ≥ 80%
[2]
  control efficacy: feeding damage (40% or less feeding damage and/or 100% mortality): ≤ 40%

## O=c1c(-c2ccccc2-c2ccc(Cl)nc2)c([O-])[n+](Cc2cnc(Cl)s2)c2ccccn12 [Compound 551]
[1]; sprayed at 50 ppm
  mortality: ≥ 80%
[2]
  control efficacy: feeding damage (40% or less feeding damage and/or 100% mortality): ≤ 40%

## O=c1c(-c2ccc3c(c2)OC(F)(F)O3)c([O-])[n+](CC(F)(F)F)c2ccccn12 [Compound 438]
[1]; sprayed at 250 ppm
  mortality: ≥ 80%
[2]
  control efficacy: feeding damage (40% or less feeding damage and/or 100% mortality): ≤ 40%

## COc1ccc(Cl)cc1-c1c([O-])[n+](Cc2ccc(Cl)nc2)c2ccccn2c1=O [Compound 247]
[1]; sprayed at 50 ppm
  mortality: ≥ 80%
[2]
  control efficacy: feeding damage (40% or less feeding damage and/or 100% mortality): ≤ 40%

## CCC[n+]1c([O-])c(-c2ccccc2)c(=O)n2ccccc21 [Compound 28]
[1]; sprayed at 50 ppm
  mortality: ≥ 80%
[1]; sprayed at 250 ppm
  mortality: ≥ 80%
[2]
  control efficacy: feeding damage (40% or less feeding damage and/or 100% mortality): ≤ 40%

## Cc1ccc(-c2c([O-])[n+](CC(F)(F)F)c3ccccn3c2=O)cc1 [Compound 361]
[1]; sprayed at 50 ppm
  mortality: ≥ 80%
[1]; sprayed at 250 ppm
  mortality: ≥ 80%
[2]
  control efficacy: feeding damage (40% or less feeding damage and/or 100% mortality): ≤ 40%

## O=c1c(-c2ccc(F)cc2)c([O-])[n+](CCCC(F)(F)Cl)c2ccccn12 [Compound 389]
[1]; sprayed at 50 ppm
  mortality: ≥ 80%
[1]; sprayed at 250 ppm
  mortality: ≥ 80%
[2]
  control efficacy: feeding damage (40% or less feeding damage and/or 100% mortality): ≤ 40%

## COc1cccc(-c2c([O-])[n+](Cc3ccc(Br)nc3)c3ccccn3c2=O)c1 [Compound 503]
[1]; sprayed at 50 ppm
  mortality: ≥ 80%
[2]
  control efficacy: feeding damage (40% or less feeding damage and/or 100% mortality): ≤ 40%

## O=c1c(-c2ccc(F)cc2)c([O-])[n+](Cc2ccc(Br)nc2)c2ccccn12 [Compound 471]
[1]; sprayed at 50 ppm
  mortality: ≥ 80%
[1]; sprayed at 250 ppm
  mortality: ≥ 80%
[2]
  control efficacy: feeding damage (40% or less feeding damage and/or 100% mortality): ≤ 40%

## COc1cc(OC)cc(-c2c([O-])[n+](Cc3ccc(Cl)nc3)c3ccccn3c2=O)c1 [Compound 198]
[1]; sprayed at 50 ppm
  mortality: ≥ 80%
[2]
  control efficacy: feeding damage (40% or less feeding damage and/or 100% mortality): ≤ 40%

## CC(c1ccc(Cl)nc1)[n+]1c([O-])c(-c2ccc(F)cc2)c(=O)n2ccccc21 (stereo not shown) [Compound 109]
[1]; sprayed at 50 ppm
  mortality: ≥ 80%
[1]; sprayed at 250 ppm
  mortality: ≥ 80%
[2]
  control efficacy: feeding damage (40% or less feeding damage and/or 100% mortality): ≤ 40%

## O=c1c(-c2ccc(F)cc2F)c([O-])[n+](Cc2ccc(Br)nc2)c2ccccn12 [Compound 472]
[1]; sprayed at 50 ppm
  mortality: ≥ 80%
[1]; sprayed at 250 ppm
  mortality: ≥ 80%
[2]
  control efficacy: feeding damage (40% or less feeding damage and/or 100% mortality): ≤ 40%

## O=c1c(-c2cccc(F)c2F)c([O-])[n+](CC(F)(F)F)c2ccccn12 [Compound 330]
[1]; sprayed at 50 ppm
  mortality: ≥ 80%
[1]; sprayed at 250 ppm
  mortality: ≥ 80%
[2]
  control efficacy: feeding damage (40% or less feeding damage and/or 100% mortality): ≤ 40%

## Cc1ncc(C[n+]2c([O-])c(-c3ccc(F)cc3)c(=O)n3ccccc32)s1 [Compound 219]
[1]; sprayed at 50 ppm
  mortality: ≥ 80%
[2]
  control efficacy: feeding damage (40% or less feeding damage and/or 100% mortality): ≤ 40%

## Cc1cc(C#N)ccc1-c1c([O-])[n+](Cc2cnc(Cl)s2)c2ccccn2c1=O [Compound 488]
[1]; sprayed at 50 ppm
  mortality: ≥ 80%
[2]
  control efficacy: feeding damage (40% or less feeding damage and/or 100% mortality): ≤ 40%

## Cc1cc(C[n+]2c([O-])c(-c3ccc(F)cc3)c(=O)n3ccccc32)on1 [Compound 197]
[1]; sprayed at 50 ppm
  mortality: ≥ 80%
[2]
  control efficacy: feeding damage (40% or less feeding damage and/or 100% mortality): ≤ 40%

## O=c1c(-c2ccc(F)cc2Br)c([O-])[n+](Cc2cnc(Cl)s2)c2ccccn12 [Compound 487]
[1]; sprayed at 50 ppm
  mortality: ≥ 80%
[2]
  control efficacy: feeding damage (40% or less feeding damage and/or 100% mortality): ≤ 40%

## O=c1c(-c2ccc(Cl)cc2)c([O-])[n+](CC(F)(F)F)c2ccccn12 [Compound 26]
[1]; sprayed at 50 ppm
  mortality: ≥ 80%
[1]; sprayed at 250 ppm
  mortality: ≥ 80%
[2]
  control efficacy: feeding damage (40% or less feeding damage and/or 100% mortality): ≤ 40%

## O=c1c(-c2ccc(F)cc2)c([O-])[n+](CC(F)(F)F)c2ccccn12 [Compound 5]
[1]; sprayed at 50 ppm
  mortality: ≥ 80%
[1]; sprayed at 250 ppm
  mortality: ≥ 80%
[2]
  control efficacy: feeding damage (40% or less feeding damage and/or 100% mortality): ≤ 40%

## COc1ccc(C(F)(F)F)cc1-c1c([O-])[n+](CC(F)(F)F)c2ccccn2c1=O [Compound 359]
[1]; sprayed at 50 ppm
  mortality: ≥ 80%
[1]; sprayed at 250 ppm
  mortality: ≥ 80%
[2]
  control efficacy: feeding damage (40% or less feeding damage and/or 100% mortality): ≤ 40%

## O=c1c(-c2cc(S(F)(F)(F)(F)F)ccc2Cl)c([O-])[n+](Cc2ccc(Cl)nc2)c2ccccn12 [Compound 621]
[1]; sprayed at 50 ppm
  mortality: ≥ 80%
[2]
  control efficacy: feeding damage (40% or less feeding damage and/or 100% mortality): ≤ 40%

## O=c1c(-c2ccc(F)cc2)c([O-])[n+](CCC(F)C(F)(F)Cl)c2ccccn12 (stereo not shown) [Compound 27]
[1]; sprayed at 50 ppm
  mortality: ≥ 80%
[1]; sprayed at 250 ppm
  mortality: ≥ 80%
[2]
  control efficacy: feeding damage (40% or less feeding damage and/or 100% mortality): ≤ 40%

## COc1cccc(-c2c([O-])[n+](CC(F)(F)F)c3ccccn3c2=O)c1F [Compound 209]
[1]; sprayed at 50 ppm
  mortality: ≥ 80%
[2]
  control efficacy: feeding damage (40% or less feeding damage and/or 100% mortality): ≤ 40%

## CCC[n+]1c([O-])c(-c2cc(C)cc(C)c2)c(=O)n2ccccc21 [Compound 343]
[1]; sprayed at 250 ppm
  mortality: ≥ 80%
[2]
  control efficacy: feeding damage (40% or less feeding damage and/or 100% mortality): ≤ 40%

## COc1cccc(-c2c([O-])[n+](Cc3cnc(Cl)s3)c3sccn3c2=O)c1 [Compound 147]
[1]; sprayed at 50 ppm
  mortality: ≥ 80%
[2]
  control efficacy: feeding damage (40% or less feeding damage and/or 100% mortality): ≤ 40%

## O=c1c(-c2cc(F)ccc2F)c([O-])[n+](CC(F)(F)F)c2ccccn12 [Compound 352]
[1]; sprayed at 250 ppm
  mortality: ≥ 80%
[2]
  control efficacy: feeding damage (40% or less feeding damage and/or 100% mortality): ≤ 40%

## CC(C)[n+]1c([O-])c(-c2ccccc2)c(=O)n2ccccc21 [Compound 297]
[1]; sprayed at 250 ppm
  mortality: ≥ 80%
[2]
  control efficacy: feeding damage (40% or less feeding damage and/or 100% mortality): ≤ 40%

## O=c1c(-c2ccc(C(F)(F)F)cc2)c([O-])[n+](CC(F)(F)F)c2ccccn12 [Compound 311]
[1]; sprayed at 250 ppm
  mortality: ≥ 80%
[2]
  control efficacy: feeding damage (40% or less feeding damage and/or 100% mortality): ≤ 40%

## CCC[n+]1c([O-])c(-c2ccc(C(F)(F)F)cc2)c(=O)n2ccccc21 [Compound 288]
[1]; sprayed at 250 ppm
  mortality: ≥ 80%
[2]
  control efficacy: feeding damage (40% or less feeding damage and/or 100% mortality): ≤ 40%

## CCC[n+]1c([O-])c(-c2cccc(C(F)(F)F)c2)c(=O)n2ccccc21 [Compound 12]
[1]; sprayed at 50 ppm
  mortality: ≥ 80%
[1]; sprayed at 250 ppm
  mortality: ≥ 80%
[2]
  control efficacy: feeding damage (40% or less feeding damage and/or 100% mortality): ≤ 40%

## COc1ccc(-c2c([O-])[n+](Cc3cnc(Cl)s3)c3ccccn3c2=O)c(OC)c1 [Compound 201]
[1]; sprayed at 50 ppm
  mortality: ≥ 80%
[2]
  control efficacy: feeding damage (40% or less feeding damage and/or 100% mortality): ≤ 40%

## O=c1c(-c2ccc(F)c(-c3ccc(F)nc3)c2)c([O-])[n+](Cc2ccc(Cl)nc2)c2ccccn12 [Compound 536]
[2]
  control efficacy: feeding damage (40% or less feeding damage and/or 100% mortality): ≤ 40%

## O=c1c(-c2ccccc2OC(F)(F)F)c([O-])[n+](CC(F)(F)F)c2ccccn12 [Compound 323]
[2]
  control efficacy: feeding damage (40% or less feeding damage and/or 100% mortality): ≤ 40%

## O=c1c(-c2ccc(F)c(Cl)c2)c([O-])[n+](CC(F)(F)F)c2ccccn12 [Compound 353]
[2]
  control efficacy: feeding damage (40% or less feeding damage and/or 100% mortality): ≤ 40%

## CCC[n+]1c([O-])c(-c2cccc([N+](=O)[O-])c2)c(=O)n2ccccc21 [Compound 300]
[2]
  control efficacy: feeding damage (40% or less feeding damage and/or 100% mortality): ≤ 40%

## COc1ccc(C[n+]2c([O-])c(-c3cccc(OC(F)(F)F)c3)c(=O)n3ccccc32)cn1 [Compound 679]
[2]
  control efficacy: feeding damage (40% or less feeding damage and/or 100% mortality): ≤ 40%

## O=c1c(-c2ccccc2)c([O-])[n+](Cc2cccnc2)c2ccccn12 [Compound 414]
[2]
  control efficacy: feeding damage (40% or less feeding damage and/or 100% mortality): ≤ 40%

## O=c1c(-c2cccc(OC(F)(F)F)c2)c([O-])[n+](CCC(F)=C(F)F)c2ccccn12 [Compound 367]
[2]
  control efficacy: feeding damage (40% or less feeding damage and/or 100% mortality): ≤ 40%

## O=c1c(-c2ccccc2F)c([O-])[n+](Cc2cnc(Cl)s2)c2c(F)cccn12 [Compound 667]
[2]
  control efficacy: feeding damage (40% or less feeding damage and/or 100% mortality): ≤ 40%

## CCC[n+]1c([O-])c(-c2cc(OC)c(Cl)cc2F)c(=O)n2ccccc21 [Compound 332]
[2]
  control efficacy: feeding damage (40% or less feeding damage and/or 100% mortality): ≤ 40%

## COc1cc(OC)cc(-c2c([O-])[n+](Cc3ccc(Cl)nc3)c3sccn3c2=O)c1 [Compound 150]
[2]
  control efficacy: feeding damage (40% or less feeding damage and/or 100% mortality): ≤ 40%

— patent US8552007B2, “Mesoionic pesticides” (E.I. du Pont de Nemours and Company, priority 2008, dated 2013)
